Data as given in PubChem BioAssay AID1508588 (Peter MacCallum Cancer Centre, 2020)
Here is one part, drawn at random, of about 18,000 reagents. In the full data, 790 (4.4%) are marked active. 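Calls rest on a combination of fold-change classes in drug and vehicle arms, not all shown here.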 Some reagents were tested in more than one well and are listed for each.

- Assay: 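Genome-wide search for knock-downs that heighten vemurafenib action in melanoma cells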 (primary screen)
- Cell system: human WM266.4 melanoma cells (BRAF V600 mutant)
- Knock-down reagent: siRNA pool against human genes, 40 nM
- Time to read-out: 96 h from transfection to read-out
- Treatment: vemurafenib 300 nM (about IC25), added 48 h after transfection, for 48 h; comparison arm got DMSO vehicle only
- Detection: 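Ratios to non-targeting siRNA for cell gain, counted as DAPI nuclei after minus before drug and averaged over two replicates, and for absorbance-read medium lactate per cell; both binned into fold-change classes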
- Scale: cell gain with vemurafenib: higher = more cell gain than with non-targeting siRNA; lactate per cell with vemurafenib: higher = more lactate made per cell
- Call rule: 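a knock-down counts as enhancing when its fold-change classes with vehicle and with vemurafenib, taken together, show a stronger drug effect on cell gain or lactate per cell; exact class pairs not stated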
- Meaning of the calls: active = enhances vemurafenib effect; inactive = no enhancement seen

NEDD1 showed cell gain with vemurafenib 0.06; lactate per cell with vemurafenib 1.33; inactive.
TAF8 showed cell gain with vemurafenib 0.31; lactate per cell with vemurafenib 2.19; inactive.
With knock-down of PPP4R2 the results were cell gain with vemurafenib 0.48; lactate per cell with vemurafenib 1.44; inactive.
Against TOM1L2, the entry reads cell gain with vemurafenib 0.83; lactate per cell with vemurafenib 0.93; inactive.
ZNF488 showed cell gain with vemurafenib 0; lactate per cell with vemurafenib 0; inactive.
After knock-down of ADORA3 the results were cell gain with vemurafenib 0.64; lactate per cell with vemurafenib 1.33; inactive.
TRIM6-TRIM34 gave cell gain with vemurafenib 1.06; lactate per cell with vemurafenib 0.6; inactive.
Silencing of LIMS1 resulted in: cell gain with vemurafenib 0.51; lactate per cell with vemurafenib 1.05; inactive.
Depletion of ZNF17 gave: cell gain with vemurafenib 0.97; lactate per cell with vemurafenib 1.04; inactive.
Depletion of TRAPPC10 came out at: cell gain with vemurafenib 1.17; lactate per cell with vemurafenib 0.64; inactive.
For ZNF202, the entry reads cell gain with vemurafenib 0.18; lactate per cell with vemurafenib 0.96; inactive.
Silencing of LSMEM2 gave: cell gain with vemurafenib 0.67; lactate per cell with vemurafenib 0.8; inactive.
Against WASHC2A, the entry reads cell gain with vemurafenib 0.61; lactate per cell with vemurafenib 0.56; active.
Silencing of RCE1 came out at: cell gain with vemurafenib 1.21; lactate per cell with vemurafenib 1.12; inactive.
Knock-down of DAPK3 came out at: cell gain with vemurafenib 0.65; lactate per cell with vemurafenib 0.87; inactive.
Knock-down of GRAMD1B resulted in: cell gain with vemurafenib 0.96; lactate per cell with vemurafenib 1.41; inactive.
Knock-down of HES1 resulted in: cell gain with vemurafenib 1; lactate per cell with vemurafenib 0.86; inactive.
After knock-down of XKRX, the record shows cell gain with vemurafenib 0.9; lactate per cell with vemurafenib 0.5; inactive.
Against MESP2, the values are cell gain with vemurafenib 0.7; lactate per cell with vemurafenib 0.69; inactive.
Against OR5AS1, the values are cell gain with vemurafenib 0.8; lactate per cell with vemurafenib 0.77; inactive.
With knock-down of CHAF1A, the record shows cell gain with vemurafenib 0.06; lactate per cell with vemurafenib 0.6; inactive.
Knock-down of MRPL48 gave: cell gain with vemurafenib 0.56; lactate per cell with vemurafenib 1.01; inactive.
Knock-down of TSLIG1 resulted in: cell gain with vemurafenib 0.99; lactate per cell with vemurafenib 0.8; inactive.
SERPINA11 gave cell gain with vemurafenib 0.62; lactate per cell with vemurafenib 0.96; inactive.
With knock-down of RAB2B, the record shows cell gain with vemurafenib 0.61; lactate per cell with vemurafenib 1.56; inactive.
With knock-down of ZNF234 the results were cell gain with vemurafenib 0.49; lactate per cell with vemurafenib 1.28; inactive.
Depletion of AQP5 gave: cell gain with vemurafenib 0.8; lactate per cell with vemurafenib 0.92; inactive.
SPPL2A scored cell gain with vemurafenib 0.9; lactate per cell with vemurafenib 0.68; inactive.
With knock-down of RPL26, the record shows cell gain with vemurafenib -0.09; lactate per cell with vemurafenib 2.49; inactive.
Silencing of TSSK1B resulted in: cell gain with vemurafenib 0.82; lactate per cell with vemurafenib 1.07; inactive.
Against TSSK1B, the values are cell gain with vemurafenib 0.53; lactate per cell with vemurafenib 1.05; inactive.
After knock-down of SDF4 the results were cell gain with vemurafenib 0.14; lactate per cell with vemurafenib 2.3; inactive.
GPR139 scored cell gain with vemurafenib 0.9; lactate per cell with vemurafenib 0.9; inactive.
With knock-down of FAM163B the results were cell gain with vemurafenib 0.44; lactate per cell with vemurafenib 1.48; inactive.
NKX6-1 showed cell gain with vemurafenib 0.73; lactate per cell with vemurafenib 1.29; inactive.
Against EME2, the entry reads cell gain with vemurafenib 0; lactate per cell with vemurafenib 0; inactive.
With knock-down of TIMM23B, the screen gave cell gain with vemurafenib -0.08; lactate per cell with vemurafenib 1.53; inactive.
Against MAP2K3, the entry reads cell gain with vemurafenib -0.12; lactate per cell with vemurafenib -0.04; active.
After knock-down of VN1R2, the screen gave cell gain with vemurafenib 1.08; lactate per cell with vemurafenib 0.63; inactive.
Silencing of IGDCC4 gave: cell gain with vemurafenib 0.89; lactate per cell with vemurafenib 0.9; inactive.
